Z-score data for 50 compounds are collected here from the supplement of paper PMC8616043.

Counter-ions that a name gives are not always drawn. The list shows a part of the results. Repeats in this data set agree poorly, so a single value says little.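 The cells are human U-2 OS cells that stably carry a GFP sensor with a nuclear import signal and a classical export signal. They were transfected to make PR50, a 50-repeat proline–arginine dipeptide protein from the ALS/FTD gene C9ORF72. Each well's nuclear-minus-cytoplasm GFP signal was scaled from in-plate DMSO (low) to PR-only wells (high), then scored against the other test wells on the plate; compounds scoring well below zero were called hits that reverse the PR effect.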

The experiment deals with U-2 OS NCT-C biosensor cells expressing PR50. As to the kind of experiment: Z-score of normalised NCT-C biosensor translocation index in PR50-expressing cells; higher = more nuclear biosensor (more disrupted nuclear export). The note with it: 3 µM; 24 h.
Turning to `Cn1ccnc1S` [Methimazole], the Z-score was inactive: 0.0567.
In the case of `Nc1ccc(-c2nc3ccc(-c4nc5ccc(N)cc5[nH]4)cc3[nH]2)cc1`, the Z-score is inactive: 0.355.
`CS(=O)(=O)CCNCc1ccc(-c2ccc3ncnc(Nc4ccc(OCc5cccc(F)c5)c(Cl)c4)c3c2)o1` [Lapatinib Ditosylate]: the Z-score was inactive: -0.119.
As to `CN1CCc2ccccc2Cc2[nH]c3ccccc3c2CC1`, the Z-score was inactive: -0.823.
`CC[C@H](CC[C@@H](C)[C@H]1CC[C@H]2[C@@H]3CC=C4C[C@@H](O)CC[C@]4(C)[C@H]3CC[C@]12C)C(C)C` [β-Sitosterol]: the Z-score was inactive: 0.553.
The value for `CCCN(CCC)C(=O)C(CCC(=O)O)NC(=O)c1ccccc1` (stereo not given) [Proglumide] was inactive: -0.187.
Take `COc1ccccc1N1CCN(CC(O)COc2cccc3ccccc23)CC1` (stereo not given) [Naftopidil dihydrochloride]: the Z-score is inactive: -0.382.
For `CN1CCC(=C2c3ccccc3CC(=O)c3sccc32)CC1` [Ketotifen Fumarate], the Z-score was inactive: -0.000237.
In the case of `CN1CCC(=C2c3ccccc3CC(=O)c3sccc32)CC1` [Ketotifen fumarate], the Z-score is inactive: -0.561.
Then `CC(C)(C)C(=O)OCOP(=O)(COCCn1cnc2c(N)ncnc21)OCOC(=O)C(C)(C)C` [Adefovir Dipivoxil], with inactive: 0.254.
With `OCC1=C[C@@H](O)[C@@H]2C=CO[C@@H](O[C@@H]3O[C@H](CO)[C@@H](O)[C@H](O)[C@H]3O)[C@H]12` [Aucubin], the Z-score was inactive: 0.104.
The value for `CC(=O)NCCc1c[nH]c2ccc(O)cc12` [N-Acetyl-5- hydroxytryptamine] was inactive: 0.0718.
Then `O=c1ccc2ccc(O)c(O)c2o1` [Daphnetin], with inactive: -0.542; and `CCC(NC(C)C)C(O)c1ccc(O)c(O)c1` (stereo not given) [Isoetharine mesylate salt], with inactive: 1.38; and `CN1CCc2cccc3c2[C@H]1Cc1ccc(O)c(O)c1-3` [Apomorphine·HCl Hemihydrate], with inactive: 0.789.
As to `CN1CCc2cccc3c2[C@H]1Cc1ccc(O)c(O)c1-3` [R-(-)-  Apomorphine hydrochloride hemihydrate], the Z-score was inactive: 0.0488.
In the case of `COc1cc(/C=C/C(=O)c2ccc(O)cc2O)ccc1O` [Homobutein], the Z-score was inactive: -0.00806.
The value for `c1cnc2c(c1)ccc1cccnc12` [1,10-Phenanthroline monohydrate] was inactive: -0.453; that for `CCOC(=O)C(C)(C)Oc1ccc(Cl)cc1` [Clofibrate] was inactive: -0.0991.
Then `CC(C)NC[C@H](O)COc1ccc(CC(N)=O)cc1` [S(-)-Atenolol], with inactive: 0.0335; and `CO[C@@]1(NC(=O)CSCC#N)C(=O)N2C(C(=O)O)=C(CSc3nnnn3C)CS[C@@H]21` [Cefmetazole sodium salt], with inactive: 0.00972; and `C[C@@H]1[C@H](O)[C@@H](C)/C=C/C=C/C=C/C=C/C=C/C=C/C=C/[C@H](O[C@@H]2O[C@H](C)[C@@H](O)[C@H](N)[C@@H]2O)C[C@@H]2O[C@](O)(C[C@@H](O)C[C@@H](O)[C@H](O)CC[C@@H](O)C[C@@H](O)CC(=O)O[C@H]1C)C[C@H](O)[C@H]2C(=O)O` [Amphotericin B], with inactive: 0.0445.
Then `O=C1Cc2cc(CCN3CCN(c4nsc5ccccc45)CC3)c(Cl)cc2N1` [Ziprasidone HCl monohydrate], with inactive: 1.65; and `CC(C)/N=c1\cc2n(-c3ccc(Cl)cc3)c3ccccc3nc-2cc1Nc1ccc(Cl)cc1` [Clofazimine], with inactive: 0.309.
For `Cc1cc(C(=O)Cn2cc(C#N)ccc2=O)c(C)n1Cc1ccccc1`, the Z-score was inactive: -0.838.
In the case of `CCNC(=O)CC[C@H](N)C(=O)O` [L-Theanine], the Z-score was inactive: 0.596.
The value for `CCN[C@H]1C[C@H](C)S(=O)(=O)c2sc(S(N)(=O)=O)cc21` [Dorzolamide·HCl] was inactive: 0.789; that for `N[C@H](CO)C(=O)O` [D-Serine] was inactive: -0.96; that for `CC(=O)N(O)CCCCCNC(=O)CCC(=O)N(O)CCCCCNC(=O)CCC(=O)N(O)CCCCCN` [Deferoxamine Mesylate] was inactive: -0.173.
The value for `CC(C)(C(=O)c1cccnc1)c1cccnc1` [Metyrapone] was inactive: -0.222; that for `Nc1ncn([C@H]2C[C@H](O)[C@@H](CO)O2)c(=O)n1` [5-Aza-2'-deoxycytidine] was inactive: 0.41.
The value for `Nc1ncn([C@H]2C[C@H](O)[C@@H](CO)O2)c(=O)n1` [Decitabine] was inactive: -0.267; that for `NCCCCNCCCN` [Spermidine trihydrochloride] was inactive: 0.542; that for `O=c1cc(-c2ccc(O)c(O)c2)oc2cc(O)cc(O)c12` [Luteolin] was inactive: -0.5.
`CCOC(=O)[C@]12CC1/C(=N\O)c1ccccc1O2` (stereo not given in full): the Z-score was inactive: 0.283.
Turning to `CC(=O)Nc1ccc(NC(=S)NC(=O)c2ccc(C(C)(C)C)cc2)cc1` [Tenovin-1], the Z-score was active: -1.99.
Then `CCCCC1OC(=O)C2=CCCCC21` (stereo not given) [Sedanolide], with inactive: -0.409.
Turning to `NC12CC3CC(CC(C3)C1)C2` [Amantadine hydrochloride], the Z-score was inactive: 1.15.
Then `NC12CC3CC(CC(C3)C1)C2` [Amantadine·HCl], with active: -3.19; and `CO[C@H]1O[C@@H]2O[C@@]3(C)CC[C@H]4[C@H](C)CC[C@@H]([C@H]1C)[C@@]24OO3` [Artemether], with inactive: -0.581.
The value for `CC1(C2CCCC2)Cc2cc(OCC(=O)O)c(Cl)c(Cl)c2C1=O` (stereo not given) was inactive: 0.321.
The value for `Clc1ccc(COC(Cn2ccnc2)c2ccc(Cl)cc2Cl)c(Cl)c1` (stereo not given) [Miconazole] was inactive: -0.0813; that for `NCC=CC(=O)O` (stereo in doubt) [cis-4- Aminocrotonic acid] was inactive: -0.159.
Regarding `CC(=O)[C@H]1CC[C@H]2[C@@H]3CC=C4C[C@@H](OS(=O)(=O)O)CC[C@]4(C)[C@H]3CC[C@]12C` [Pregnenolone sulfate sodium], the Z-score was inactive: 2.65.
For the compound `COc1cc2c(c(OC)c1OC)-c1c(cc(OC)c(OC)c1OC)CC(C)C(C)C2` (stereo not drawn) [R(+)-Schisandrin A], the Z-score was inactive: -0.0895.
Take `O=C(O)c1ccccc1Nc1ccccc1` [N-Phenyl anthranilic acid]: the Z-score is inactive: -0.00987.
Take `CCCCCCCCCCC1=C(C)C(=O)C(OC)=C(OC)C1=O` [Decylubiquinone]: the Z-score is inactive: -0.329.
The value for `Cc1ccc(/C=N/NC(=O)c2n[nH]c3c2CCCC3)cc1` [Suprafenacine] was inactive: 3.01; that for `C=CC[C@H](N)C(=O)O` [L-allylglycine] was inactive: -0.157; that for `C[C@H](NC(=O)CNC(=O)c1cccc(Cl)c1)c1ccccc1` was inactive: -0.0954.
